This note sets out measurements from PMC10348947, “Catalytic antibodies in arrhythmogenic cardiomyopathy patients cleave desmoglein 2 and N-cadherin and impair cardiomyocyte cohesion” (Cellular and Molecular Life Sciences: CMLS, 2023).

This experiment deals with T1, Recombinant human desmoglein 2 extracellular domain tagged with Fc fragment (DSG2-Fc) (human), Q14126.
T1 chain: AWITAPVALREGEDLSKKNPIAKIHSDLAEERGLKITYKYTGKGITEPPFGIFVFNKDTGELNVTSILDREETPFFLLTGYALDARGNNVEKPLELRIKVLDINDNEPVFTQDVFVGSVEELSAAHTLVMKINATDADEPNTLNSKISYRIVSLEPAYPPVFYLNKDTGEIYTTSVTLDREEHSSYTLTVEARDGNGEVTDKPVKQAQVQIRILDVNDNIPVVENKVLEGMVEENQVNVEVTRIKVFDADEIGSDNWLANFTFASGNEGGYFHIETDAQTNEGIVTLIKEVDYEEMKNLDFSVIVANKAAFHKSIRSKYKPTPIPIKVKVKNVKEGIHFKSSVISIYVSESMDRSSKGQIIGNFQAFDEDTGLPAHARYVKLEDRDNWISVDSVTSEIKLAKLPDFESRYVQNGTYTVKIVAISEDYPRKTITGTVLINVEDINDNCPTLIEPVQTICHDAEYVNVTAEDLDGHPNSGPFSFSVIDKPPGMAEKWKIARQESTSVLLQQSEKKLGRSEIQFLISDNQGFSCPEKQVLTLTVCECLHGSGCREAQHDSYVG
The experiment in a line: atomic force microscopy (cell-free force spectroscopy); the same Fc construct covalently linked via a PEG linker to the AFM tip and to the mica sheet; 37 °C; HBSS buffer; loading force 0.3 nN, contact delay 0.1 s, retraction velocity 1 µm/s; 1000 force-distance curves for the baseline trans-interaction probability, then 1 h with patient or control IgG (1:50); both purified. The following applies: remark: other sources report otherwise.

These are yes or no findings as the source states them, for the method shown. Some binding calls cover weakened binding; strength is not graded here. Tags and fused reporters may be left off the sequences shown.

B1: Recombinant human desmoglein 2 extracellular domain tagged with Fc fragment (DSG2-Fc), Q14126 50-609 (Fc fusion)
chain: AWITAPVALREGEDLSKKNPIAKIHSDLAEERGLKITYKYTGKGITEPPFGIFVFNKDTGELNVTSILDREETPFFLLTGYALDARGNNVEKPLELRIKVLDINDNEPVFTQDVFVGSVEELSAAHTLVMKINATDADEPNTLNSKISYRIVSLEPAYPPVFYLNKDTGEIYTTSVTLDREEHSSYTLTVEARDGNGEVTDKPVKQAQVQIRILDVNDNIPVVENKVLEGMVEENQVNVEVTRIKVFDADEIGSDNWLANFTFASGNEGGYFHIETDAQTNEGIVTLIKEVDYEEMKNLDFSVIVANKAAFHKSIRSKYKPTPIPIKVKVKNVKEGIHFKSSVISIYVSESMDRSSKGQIIGNFQAFDEDTGLPAHARYVKLEDRDNWISVDSVTSEIKLAKLPDFESRYVQNGTYTVKIVAISEDYPRKTITGTVLINVEDINDNCPTLIEPVQTICHDAEYVNVTAEDLDGHPNSGPFSFSVIDKPPGMAEKWKIARQESTSVLLQQSEKKLGRSEIQFLISDNQGFSCPEKQVLTLTVCECLHGSGCREAQHDSYVG
With B1, the binding result is on record as “binds”.
